# Data from US20080160059A1, “ANTIBIOTIC/ANTIMYCOTIC PREPARATION AND USE IN PLANTS” (priority 2006, published 2008).
# Counter-ions that a name gives are not always drawn. For at least one compound, name, drawing or mass did not settle the structure.
# Test system: Burkholderia andropogonis
# Assay: Absorbent disc test on a bacterial lawn on agar (kill zone)
# Type: cell-based
# Settings: oxytetracycline hydrochloride compared with copper oxychloride
# Excerpt: To determine the sensitivity of Burkholderia andropogonis, a stock was applied to commercially prepared agar-containing Petri dishes to provide dishes containing a lawn of bacteria. Then, absorbent discs containing a mixture of oxytetracycline hydrochloride and copper oxychloride, and each of the active ingredients separately, oxytetracycline hydrochloride alone and copper oxychloride alone were placed onto the bacterial lawn. The concentrations of the individual active agents in the discs were the same as that for each found in the combination. The combination and the individual actives were tested at three different concentrations. Each concentration was run in triplicate.
# An analogous commercially available system for making routine determinations of bacterial and fungal sensitivity also was used.
# The toxicity at each concentration was far greater than the sum of the toxicities of each active agent alone, for example, at the intermediate concentration tested, the bacteria kill zone for oxytetracycline was 3.3 mm in diameter; for copper oxychloride, the zone was 2 mm in diameter; but for the combination, the kill zone was 15 mm in diameter.
smiles,measurement,value
CN(C)[C@@H]1C(O)=C(C(N)=O)C(=O)[C@@]2(O)C(O)=C3C(=O)c4c(O)cccc4[C@@](C)(O)[C@H]3[C@H](O)[C@@H]12 [oxytetracycline hydrochloride],sensitivity of Burkholderia andropogonis to the active ingredients tested separately,slightly more sensitive
